The results in this text go back to publication PMC4123608.

Sequences of proteins named here, by UniProt entry; tags and fusion partners are left off.
UniProt Q99683: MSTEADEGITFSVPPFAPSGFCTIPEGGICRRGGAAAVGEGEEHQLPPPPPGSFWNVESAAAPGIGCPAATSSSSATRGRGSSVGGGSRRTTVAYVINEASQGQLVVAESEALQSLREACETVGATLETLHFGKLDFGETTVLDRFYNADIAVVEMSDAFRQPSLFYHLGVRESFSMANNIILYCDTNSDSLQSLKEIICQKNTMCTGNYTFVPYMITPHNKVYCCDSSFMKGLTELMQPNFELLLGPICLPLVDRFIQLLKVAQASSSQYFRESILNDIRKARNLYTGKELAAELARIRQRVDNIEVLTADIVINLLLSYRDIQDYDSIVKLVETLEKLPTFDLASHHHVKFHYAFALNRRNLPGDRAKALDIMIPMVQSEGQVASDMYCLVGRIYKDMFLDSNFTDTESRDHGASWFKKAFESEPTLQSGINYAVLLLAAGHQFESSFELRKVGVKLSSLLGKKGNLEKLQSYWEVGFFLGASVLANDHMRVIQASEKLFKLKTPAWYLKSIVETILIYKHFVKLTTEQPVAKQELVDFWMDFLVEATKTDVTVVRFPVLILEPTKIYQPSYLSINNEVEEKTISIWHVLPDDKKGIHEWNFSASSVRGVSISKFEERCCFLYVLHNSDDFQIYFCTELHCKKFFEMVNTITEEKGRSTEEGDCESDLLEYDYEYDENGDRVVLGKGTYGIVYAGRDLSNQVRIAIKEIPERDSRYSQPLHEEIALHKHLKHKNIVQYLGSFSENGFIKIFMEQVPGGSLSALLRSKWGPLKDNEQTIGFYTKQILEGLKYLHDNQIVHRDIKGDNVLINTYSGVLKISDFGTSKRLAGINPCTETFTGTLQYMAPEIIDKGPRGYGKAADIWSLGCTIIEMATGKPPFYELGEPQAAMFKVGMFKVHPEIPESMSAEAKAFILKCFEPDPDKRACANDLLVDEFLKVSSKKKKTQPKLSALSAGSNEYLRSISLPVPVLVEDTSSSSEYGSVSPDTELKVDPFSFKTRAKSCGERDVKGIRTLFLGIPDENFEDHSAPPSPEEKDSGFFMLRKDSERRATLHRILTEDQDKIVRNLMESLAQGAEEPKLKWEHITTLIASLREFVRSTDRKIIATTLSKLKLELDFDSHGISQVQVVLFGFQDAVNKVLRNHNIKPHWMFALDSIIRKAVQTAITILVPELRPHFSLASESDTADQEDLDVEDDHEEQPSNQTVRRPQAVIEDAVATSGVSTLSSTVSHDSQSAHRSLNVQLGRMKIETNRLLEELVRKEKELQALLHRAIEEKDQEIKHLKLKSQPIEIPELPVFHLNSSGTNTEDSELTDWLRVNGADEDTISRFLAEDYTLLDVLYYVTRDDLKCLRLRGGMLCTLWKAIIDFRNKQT

No constants are given. Whether binding was seen depends on the method and setting. In cells and extracts the contact can be indirect. Some results given as binding are weak or reduced against the parent protein; the word gives no strength. Where a sequence is shown, tags or fusion partners need not be part of it.

This test has as its target Apoptosis Signal-regulating Kinase 1 (ASK1) (UniProt Q99683). Briefly: co-IP; lysates of cells transfected with ASK1 and/or myc-GSTM4 (or GSTM4 deletion mutants); immunoprecipitation with an anti-ASK1 antibody, co-precipitated GSTM4 detected with an anti-myc antibody.

B1: GSTM4-CT (GSTM4 deletion mutant, 223-656 bp) (domain or fragment, UniProt Q03013 75-218)
chain: AILCYIARKHNLCGETEEEKIRVDILENQAMDVSNQLARVCYSPDFEKLKPEYLEELPTMMQHFSQFLGKRPWFVGDKITFVDFLAYDVLDLHRIFEPNCLDAFPNLKDFISRFEGLEKISAYMKSSRFLPKPLYTRVAVWGNK
Turning to B1, the binding result was “binds”.

B2: myc-GSTM4 (glutathione S-transferase M4, full length construct) (enzyme, UniProt Q03013 1-218)
chain: MSMTLGYWDIRGLAHAIRLLLEYTDSSYEEKKYTMGDAPDYDRSQWLNEKFKLGLDFPNLPYLIDGAHKITQSNAILCYIARKHNLCGETEEEKIRVDILENQAMDVSNQLARVCYSPDFEKLKPEYLEELPTMMQHFSQFLGKRPWFVGDKITFVDFLAYDVLDLHRIFEPNCLDAFPNLKDFISRFEGLEKISAYMKSSRFLPKPLYTRVAVWGNK
Consider B2, for which the binding entry is on record as “binds”.
